{"source": "PubChem BioAssay AID1671195 (Yale University, 2021)", "test": "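Genes whose knockdown alters LDL uptake in liver cancer cells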 (primary screen)", "cell system": "human Huh7 hepatoma cells", "reagents": "siRNA pool against human genes, 18 nM", "time to read-out": "about 2 to 2.5 days of knockdown, then 8 h LDL uptake", "treatment": "DiI-labelled LDL at 30 µg/ml for 8 h, in lipoprotein-deficient serum medium", "read-out": "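Fluorescent LDL signal imaged in cells, scaled to the plate median, robust z-score for each replicate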", "scale": "robust z-score: higher = more LDL uptake after knockdown", "hit rule": "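Active when two or more replicates show a robust z-score above 2 or below -2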", "note": "Here is one part, drawn at random, of about 22,000 deposited reagents. About 1,510 of all reagents (6.9%) were called active. 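Active includes knockdowns raising or lowering LDL uptake; positive z-scores mean more uptake, negative mean less.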 Reagent sequences are not shown."}
{"Target gene": "CROCC (ciliary rootlet coiled-coil, rootletin)", "robust z-score, replicate 1": -0.146, "robust z-score, replicate 2": 1.92, "robust z-score, replicate 3": 0.331, "activity call": "inactive"}
{"Target gene": "HJV (hemojuvelin BMP co-receptor)", "robust z-score, replicate 1": 0.342, "robust z-score, replicate 2": 2.79, "robust z-score, replicate 3": 0.969, "activity call": "inactive"}
{"Target gene": "DRC4 (dynein regulatory complex subunit 4)", "robust z-score, replicate 1": 3.44, "robust z-score, replicate 2": 1.95, "robust z-score, replicate 3": 2.12, "activity call": "active"}
{"Target gene": "LCMT1 (leucine carboxyl methyltransferase 1)", "robust z-score, replicate 1": 0.688, "robust z-score, replicate 2": 0.258, "robust z-score, replicate 3": 0.655, "activity call": "inactive"}
{"Target gene": "LOC200226 (retired record)", "robust z-score, replicate 1": -0.0894, "robust z-score, replicate 2": 0.473, "robust z-score, replicate 3": 0.46, "activity call": "inactive"}
{"Target gene": "PSMD2 (proteasome 26S subunit ubiquitin receptor, non-ATPase 2)", "robust z-score, replicate 1": 1.72, "robust z-score, replicate 2": 1.22, "robust z-score, replicate 3": 2.39, "activity call": "inactive"}
{"Target gene": "LOC388530 (retired record)", "robust z-score, replicate 1": -0.5, "robust z-score, replicate 2": -0.619, "robust z-score, replicate 3": -0.536, "activity call": "inactive"}
{"Target gene": "ALDH7A1 (aldehyde dehydrogenase 7 family member A1)", "robust z-score, replicate 1": 1.08, "robust z-score, replicate 2": 1.27, "robust z-score, replicate 3": 1.1, "activity call": "inactive"}
{"Target gene": "MAST3 (microtubule associated serine/threonine kinase 3)", "robust z-score, replicate 1": -1.27, "robust z-score, replicate 2": -1.18, "robust z-score, replicate 3": -1.12, "activity call": "inactive"}
{"Target gene": "HTR1E (5-hydroxytryptamine receptor 1E)", "robust z-score, replicate 1": -0.394, "robust z-score, replicate 2": -0.0888, "robust z-score, replicate 3": -0.48, "activity call": "inactive"}
{"Target gene": "CD70 (CD70 molecule)", "robust z-score, replicate 1": -1.51, "robust z-score, replicate 2": -1.24, "robust z-score, replicate 3": -1.15, "activity call": "inactive"}
{"Target gene": "RNF183 (ring finger protein 183)", "robust z-score, replicate 1": 0.0369, "robust z-score, replicate 2": -1.25, "robust z-score, replicate 3": -0.415, "activity call": "inactive"}
{"Target gene": "MCF2L (MCF.2 cell line derived transforming sequence like)", "robust z-score, replicate 1": 0.96, "robust z-score, replicate 2": 1.25, "robust z-score, replicate 3": 0.593, "activity call": "inactive"}
{"Target gene": "NINJ1 (ninjurin 1)", "robust z-score, replicate 1": -0.451, "robust z-score, replicate 2": 0.464, "robust z-score, replicate 3": 0.41, "activity call": "inactive"}
{"Target gene": "CEP41 (centrosomal protein 41)", "robust z-score, replicate 1": 0.237, "robust z-score, replicate 2": 0.143, "robust z-score, replicate 3": 0.373, "activity call": "inactive"}
{"Target gene": "BMPR1A (bone morphogenetic protein receptor type 1A)", "robust z-score, replicate 1": 0.871, "robust z-score, replicate 2": -0.232, "robust z-score, replicate 3": 0.877, "activity call": "inactive"}

Not a retest: an excerpt of the list.
{"Target gene": "LOC200226 (retired record)", "robust z-score, replicate 1": -0.0894, "robust z-score, replicate 2": 0.473, "robust z-score, replicate 3": 0.46, "activity call": "inactive"}
{"Target gene": "PSMD2 (proteasome 26S subunit ubiquitin receptor, non-ATPase 2)", "robust z-score, replicate 1": 1.72, "robust z-score, replicate 2": 1.22, "robust z-score, replicate 3": 2.39, "activity call": "inactive"}
